Among the data in patent publication US20130158238A1 (THERACLONE SCIENCES, published 2013) are binding values, retold here.

Amino acid sequences for entries named in this document (tags omitted).
UniProt P06821: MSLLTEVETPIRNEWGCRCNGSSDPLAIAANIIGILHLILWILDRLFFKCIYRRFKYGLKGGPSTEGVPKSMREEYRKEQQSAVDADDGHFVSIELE

Test [1] deals with M2 protein on influenza A/Puerto Rico/8/34 (H1N1) virus particles (Influenza A virus A/Puerto Rico/8/34 (H1N1)) (UniProt P06821). In words: ELISA on virus, crude supernatants. In general terms: ELISA stands for enzyme-linked immunosorbent assay.
Test [2] has the same target. The experiment in a line: ELISA on PR8 virus, crude supernatants.

These are yes or no findings as the source states them, for the method shown. Some binding calls cover weakened binding; strength is not graded here.

B1: 8i10 (antibody, V domains shown)
VH: QVQLQESGPGLVKPSETLSLTCTVSGSSISNYYWSWIRQSPGKGLEWIGFIYYGGNTKYNPSLKSRVTISQDTSKSQVSLTMSSVTAAESAVYFCARASCSGGYCILDYWGQGTLVTVS
VL: DIQMTQSPSSLSASVGDRVTITCRASQNIYKYLNWYQQRPGKAPKGLISAASGLQSGVPSRFSGSGSGTDFTLTITSLQPEDFATYYCQQSYSPPLTFGGGTRVEIK
B1: the binding entry in test [1] and in test [2] was “binds” throughout.

B2: 21B15 (antibody, V domains shown)
VH: QVQLQESGPGLVKPSETLSLTCTVSGSSISNYYWSWIRQSPGKGLEWIGFIYYGGNTKYNPSLKSRVTISQDTSKSQVSLTMSSVTAAESAVYFCARASCSGGYCILDYWGQGTLVTVS
VL: DIQVTQSPSSLSASVGDRVTITCRASQNIYKYLNWYQQRPGKAPKGLISAASGLQSGVPSRFSGSGSGTDFTLTITSLQPEDFATYYCQQSYSPPLTFGGGTRVDIK
In the case of B2, the binding entry in test [1] and in test [2] was “binds” throughout.
